Data as given in PubChem BioAssay AID602196 (INSERM, 2012).
Aim: 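Modifiers of cisplatin sensitivity in A549 cells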. Cells: human A549 lung cancer cells. Knock-down reagent: siRNA pair against human genes. Time to read-out: 48 h transfection before cisplatin; time from cisplatin to read-out not stated. Conditions: cisplatin at a dose killing half of control-siRNA cells; exact dose and duration not given. Read-out: 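Shift in cisplatin death relative to control siRNA, from -50 (all cells die) to +50 (no cells die); siRNAs harmful on their own scored 0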. Reading the numbers: two-siRNA summed score (-2 to +2): higher = both siRNAs protect from cisplatin killing; -2 means both sensitise; mean protection from cisplatin (shift in death) and protection from cisplatin (shift in death), siRNA C and protection from cisplatin (shift in death), siRNA D: higher = protection from cisplatin killing. Hit rule: 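Each siRNA scores 0 if harmful alone by LDH or WST-1, otherwise +1 if it reduces and -1 if it increases cisplatin killing; a gene is active when both siRNAs agree (sum +2 or -2)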. Meaning of the calls: active = both siRNAs shift cisplatin killing the same way; inactive = no consistent shift, or siRNA harmful alone.
The whole screen tested about 23,000 reagents; shown is a part drawn at random. 455 of all reagents (2%) count as active. 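Active includes both protection and sensitisation; some change values fall well beyond the stated -50 to +50 range.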 Reagents against one gene are numbered here. Not given: the amount of reagent.

target gene | reagent no. | two-siRNA summed score (-2 to +2) | mean protection from cisplatin (shift in death) (%) | protection from cisplatin (shift in death), siRNA C (%) | protection from cisplatin (shift in death), siRNA D (%) | outcome
LOC286177 | 1 | 0 | 3.5 | 3.9 | 3.2 | inactive
CSAG2 (CSAG family member 2) | 1 | 0 | 0.3 | -7.3 | 7.9 | inactive
ICA1 (islet cell autoantigen 1) | 1 | 0 | 2.2 | 5.5 | -1 | inactive
HYAL2 (hyaluronidase 2) | 1 | 0 | -2.9 | -2.7 | -3.1 | inactive
STX12 (syntaxin 12) | 1 | -2 | -24.2 | -16.9 | -31.5 | active
TBR1 (T-box brain transcription factor 1) | 1 | -1 | -7.9 | 5.7 | -21.5 | inactive
NHS (NHS actin remodeling regulator) | 1 | 0 | 0.8 | 11.8 | -10.2 | inactive
NFXL1 (nuclear transcription factor, X-box binding like 1) | 1 | 0 | 2.1 | 5.9 | -1.6 | inactive
LOC442744 (retired record) | 1 | 0 | 13.4 | 5.6 | 21.1 | inactive
RHO (rhodopsin) | 1 | 0 | 2.7 | -2.4 | 7.8 | inactive
ZNF202 (zinc finger protein 202) | 1 | 0 | 6.1 | 12.3 | -0.1 | inactive
IRF1 (interferon regulatory factor 1) | 1 | 1 | 16.7 | 29.7 | 3.6 | inactive
PTCHD3P1 (patched domain containing 3 pseudogene 1) | 1 | 0 | 0.8 | -5.6 | 7.2 | inactive
HCN3 | 1 | 0 | 11.2 | 10.2 | 12.2 | inactive
CCL24 (C-C motif chemokine ligand 24) | 1 | 0 | 16.1 | 17 | 15.2 | inactive
STOM (stomatin) | 1 | 1 | 9.8 | 13.1 | 6.5 | inactive
UCN (urocortin) | 1 | 0 | -2.9 | -13.7 | 7.8 | inactive
LOC283871 | 1 | 1 | 11.8 | 17.2 | 6.5 | inactive
ARHGEF26 (Rho guanine nucleotide exchange factor 26) | 1 | 0 | 10.2 | 3.5 | 16.8 | inactive
FANCA (FA complementation group A) | 1 | 0 | 4.5 | 7.8 | 1.2 | inactive
RPL36AL (ribosomal protein L36a like) | 1 | 0 | 7 | 10.5 | 3.4 | inactive
PCDHB1 (protocadherin beta 1) | 1 | 0 | 20.5 | 43.4 | -2.3 | inactive
ZDHHC8BP (ZDHHC8B, pseudogene) | 1 | 0 | 4.9 | 2.3 | 7.5 | inactive
FAM151A (family with sequence similarity 151 member A) | 1 | 0 | 15.4 | 27.9 | 2.9 | inactive
CRYBG2 (crystallin beta-gamma domain containing 2) | 1 | 0 | 13.5 | 27.2 | -0.3 | inactive
SP5 (Sp5 transcription factor) | 1 | 0 | 10.4 | 4.9 | 15.8 | inactive
LOC441423 | 1 | 0 | 8.6 | 7.2 | 10 | inactive
LOC440564 | 1 | 1 | 15.3 | 18.6 | 12 | inactive
PCED1A (PC-esterase domain containing 1A) | 1 | 0 | 7.4 | 2.9 | 12 | inactive
PAICS | 1 | 0 | -7.1 | -7.5 | -6.7 | inactive
APLP1 (amyloid beta precursor like protein 1) | 1 | 0 | 5.7 | -2.7 | 14 | inactive
LOC401921 | 1 | 1 | 14.8 | 11.7 | 18 | inactive
FASLG (Fas ligand) | 1 | 0 | 6.9 | 9.6 | 4.2 | inactive
AIFM2 (AIF family member 2, ferroptosis suppressor) | 1 | 1 | 18.2 | 14.7 | 21.7 | inactive
C1QTNF8 (C1q and TNF related 8) | 1 | 1 | 13.6 | 12.6 | 14.6 | inactive
OR5H2 (olfactory receptor family 5 subfamily H member 2) | 1 | -1 | -3.7 | 2.8 | -10.2 | inactive
CFAP251 (cilia and flagella associated protein 251) | 1 | 0 | -3.9 | 6.3 | -14 | inactive
NPY2R (neuropeptide Y receptor Y2) | 1 | 0 | 16.1 | 8.2 | 23.9 | inactive
PLPP5 (phospholipid phosphatase 5) | 1 | 0 | -5.2 | -5.7 | -4.8 | inactive
LOC391510 | 1 | 0 | 12.7 | 29.4 | -4.1 | inactive
CFI (complement factor I) | 1 | -1 | -15.6 | -2.4 | -28.8 | inactive
CFAP65 (cilia and flagella associated protein 65) | 1 | 0 | 3.9 | 17.3 | -9.5 | inactive
CFAP65 (cilia and flagella associated protein 65) | 2 | 0 | 8.6 | 10.2 | 7 | inactive
EMC3 (ER membrane protein complex subunit 3) | 1 | 0 | -4 | 11.6 | -19.7 | inactive
ZNF423 (zinc finger protein 423) | 1 | 1 | 11.1 | 5.1 | 17.2 | inactive
LOC390006 | 1 | 0 | 16.3 | 11.7 | 20.9 | inactive
ZNF23 (zinc finger protein 23) | 1 | 1 | 5.8 | 2.3 | 9.2 | inactive
ILKAP (ILK associated serine/threonine phosphatase) | 1 | 0 | -3.1 | 0.8 | -7.1 | inactive
C21orf58 (chromosome 21 open reading frame 58) | 1 | 0 | -8.3 | -11.5 | -5.1 | inactive
LOC442612 | 1 | 0 | 12.5 | 4.4 | 20.6 | inactive
GPR52 (G protein-coupled receptor 52) | 1 | 1 | 19 | 6.8 | 31.2 | inactive
CD1A (CD1a molecule) | 1 | 0 | 17 | 20.9 | 13.2 | inactive
SH3BP1 (SH3 domain binding protein 1) | 1 | 0 | -1.9 | -11.8 | 8.1 | inactive
C4orf46 (chromosome 4 open reading frame 46) | 1 | -1 | -3.6 | -15 | 7.9 | inactive
PLA2G4D (phospholipase A2 group IVD) | 1 | 0 | 7.9 | 12.3 | 3.5 | inactive
TRANK1 (tetratricopeptide repeat and ankyrin repeat containing 1) | 1 | 0 | 9.3 | 8.4 | 10.1 | inactive
MAB21L2 (mab-21 like 2) | 1 | 0 | 8.5 | 4.7 | 12.2 | inactive

Reprinted from the entries so far for reference:
target gene | reagent no. | two-siRNA summed score (-2 to +2) | mean protection from cisplatin (shift in death) (%) | protection from cisplatin (shift in death), siRNA C (%) | protection from cisplatin (shift in death), siRNA D (%) | outcome
CD1A (CD1a molecule) | 1 | 0 | 17 | 20.9 | 13.2 | inactive
SH3BP1 (SH3 domain binding protein 1) | 1 | 0 | -1.9 | -11.8 | 8.1 | inactive
C4orf46 (chromosome 4 open reading frame 46) | 1 | -1 | -3.6 | -15 | 7.9 | inactive
PLA2G4D (phospholipase A2 group IVD) | 1 | 0 | 7.9 | 12.3 | 3.5 | inactive
TRANK1 (tetratricopeptide repeat and ankyrin repeat containing 1) | 1 | 0 | 9.3 | 8.4 | 10.1 | inactive
MAB21L2 (mab-21 like 2) | 1 | 0 | 8.5 | 4.7 | 12.2 | inactive
